{"source": "PubChem BioAssay AID504804 | Drosophila RNAi Screening Center – 2011", "aim": "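Knock-downs shielding fly cells from apoptosis caused by DNA damage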 (primary screen)", "cells": "Drosophila Kc cells", "reagents": "long dsRNA against Drosophila genes, 0.5 µg dsRNA per well", "duration": "96 h (48 h knock-down, then 48 h drug)", "conditions": "doxorubicin 5 µg/ml for 48 h, added 48 h after dsRNA", "measurement": "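Luminescent ATP counts per replicate, not normalised, reflecting viable cells after 48 h dsRNA knock-down followed by 48 h of 5 µg/ml doxorubicin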", "reading the numbers": "raw ATP luminescence: higher = more viable cells, protection from doxorubicin", "hit rule": "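Active when both duplicate wells lie at least 2 SD above the plate mean and protection is confirmed by rescreening and independent dsRNAs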", "note": "The deposit covers about 19,000 reagents; shown is an unselected part of those with a known target gene and a result. Of all reagents, 47 (0.25%) got an active call. 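Signals are raw, not normalised; exact z-scores behind calls not deposited; actives needed confirmation, so some wells reaching 2 SD are inactive.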 Reagents against one gene are numbered here. Reagent sequences are not shown."}
{"gene":"CG3651","reagent":1,"raw ATP luminescence, replicate 1":64637,"raw ATP luminescence, replicate 2":67093,"Call":"inactive"}
{"gene":"HERC2","reagent":1,"raw ATP luminescence, replicate 1":3.69e5,"raw ATP luminescence, replicate 2":3.39e5,"Call":"inactive"}
{"gene":"CG7084","reagent":1,"raw ATP luminescence, replicate 1":46420,"raw ATP luminescence, replicate 2":47087,"Call":"inactive"}
{"gene":"Rdl","reagent":1,"raw ATP luminescence, replicate 1":43830,"raw ATP luminescence, replicate 2":36540,"Call":"inactive"}
{"gene":"mRpL40","reagent":1,"raw ATP luminescence, replicate 1":55297,"raw ATP luminescence, replicate 2":50763,"Call":"inactive"}
{"gene":"trol","reagent":1,"raw ATP luminescence, replicate 1":1.64e5,"raw ATP luminescence, replicate 2":1.74e5,"Call":"inactive"}
{"gene":"trol","reagent":2,"raw ATP luminescence, replicate 1":3.44e5,"raw ATP luminescence, replicate 2":3.01e5,"Call":"inactive"}
{"gene":"trol","reagent":3,"raw ATP luminescence, replicate 1":42000,"raw ATP luminescence, replicate 2":41800,"Call":"inactive"}
{"gene":"trol","reagent":4,"raw ATP luminescence, replicate 1":35790,"raw ATP luminescence, replicate 2":50340,"Call":"inactive"}
{"gene":"wor","reagent":1,"raw ATP luminescence, replicate 1":74730,"raw ATP luminescence, replicate 2":68373,"Call":"inactive"}
{"gene":"CG12499","reagent":1,"raw ATP luminescence, replicate 1":53350,"raw ATP luminescence, replicate 2":64340,"Call":"inactive"}

Targets above whose gene name begins with T or t:
{"gene":"trol","reagent":1,"raw ATP luminescence, replicate 1":1.64e5,"raw ATP luminescence, replicate 2":1.74e5,"Call":"inactive"}
{"gene":"trol","reagent":2,"raw ATP luminescence, replicate 1":3.44e5,"raw ATP luminescence, replicate 2":3.01e5,"Call":"inactive"}
{"gene":"trol","reagent":3,"raw ATP luminescence, replicate 1":42000,"raw ATP luminescence, replicate 2":41800,"Call":"inactive"}
{"gene":"trol","reagent":4,"raw ATP luminescence, replicate 1":35790,"raw ATP luminescence, replicate 2":50340,"Call":"inactive"}

Further entries follow.
{"gene":"CG30026","reagent":1,"raw ATP luminescence, replicate 1":68887,"raw ATP luminescence, replicate 2":88397,"Call":"inactive"}
{"gene":"Son","reagent":1,"raw ATP luminescence, replicate 1":66087,"raw ATP luminescence, replicate 2":62780,"Call":"inactive"}
{"gene":"CG4025","reagent":1,"raw ATP luminescence, replicate 1":55370,"raw ATP luminescence, replicate 2":59570,"Call":"inactive"}
{"gene":"CG7916","reagent":1,"raw ATP luminescence, replicate 1":78127,"raw ATP luminescence, replicate 2":83880,"Call":"inactive"}
{"gene":"CG12836","reagent":1,"raw ATP luminescence, replicate 1":43003,"raw ATP luminescence, replicate 2":66400,"Call":"inactive"}
{"gene":"CG3655","reagent":1,"raw ATP luminescence, replicate 1":3.09e5,"raw ATP luminescence, replicate 2":2.86e5,"Call":"inactive"}
{"gene":"CG3655","reagent":2,"raw ATP luminescence, replicate 1":44140,"raw ATP luminescence, replicate 2":51930,"Call":"inactive"}
{"gene":"CG3655","reagent":3,"raw ATP luminescence, replicate 1":50330,"raw ATP luminescence, replicate 2":77980,"Call":"inactive"}
